pKd: −log10 of the molar value. Some results were stated once for a whole list of compounds, not compound by compound. Where no end group is shown, it is not given here.
Columns and labels:
[1] = target: GmRLK18-1 LRR domain (RHG1); assay: Binding of CLE like peptides to purified LRR domain of the RLK at rhg1/Rfs2, titration by luminescence spectrometry; set-up: species or system Glycine max; settings: assays in vitro; read-out: binding constants, GmRLK18-1-LRR
Source text: (§1) The full length rhg1/Rfs2 or Rhg4 cDNA from the SCN resistant cultivar, ‘Forrest’ (Bruker et al. 2005), was sub-cloned in pGEM-T vector. For the rhg1/Rfs2 LRR DNA was PCR amplified using internal primers. Primers were designed to copy and amplify a 1032 bp region encompassing the 10 LRRs of rhg1. The sense primer 141-485F: 5′-[…]-3′ contained an eight base linker followed by an NcoI restriction site (in bold) to allow in-frame cloning into the expression vector pET30A (+). A factor Xa site (underlined) was incorporated in the sense primer in order to cleave the fusion protein. The anti-sense primer 141-485R: 5′-[…]-3′ contained a six base linker followed by an XhoI restriction site (in bold). The stop codon (underlined) was added to the primer sequence to terminate the RHG1 translation. The amplicon obtained by PCR was isolated by agarose gel electrophoresis and purified using gel elution. The amplified fragment was subcloned into pGEMT vector by ligation of the 3′T vector overhang with the 3′A added by Taq polymerase during template amplification. The complementarity between the vector 3′T overhangs and the PCR product 3′A overhangs allowed for direct ligation of PCR products into the vector. pGEMT vector was transformed into DH5a cells, positive colonies were selected and grown overnight in 5 ml of 2-fold YT medium. […]

[2] = target: GmRLK8-1 LRR domain (RHG4); assay: Binding of CLE like peptides to purified LRR domain of the RLK at Rhg4, titration by luminescence spectrometry; set-up: species or system Glycine max; settings: assays in vitro; read-out: affinity, GmRLK8-1 LRR domain
Source text: as §1

Row | Sequence | pKd [1] | pKd [2]
1 | KRLSPSGPDPHHH [N, KRLSPSGPDPHHH] | 7.52 to 7.54 | –
2 | RTVPSGPDPLHH [compound 3, RTVPSGPDPLHH] | 7.52 to 7.54 | 7.28 to 7.30

From patent publication US20120192315A1, “RESISTANCE GENES AND PROTEINS ACTIVE AGAINST FUSARIUM ROOT ROTS, CYST NEMATODES AND SOYBEAN SUDDEN DEATH SYNDROME AND METHODS EMPLOYING SAME” (Southern Illinois University Carbondale, priority 2011, published 2012)
